Results on two compounds are retold here after US20260364061A1, “COMPOUNDS, COMPOSITIONS, AND METHODS FOR THE TREATMENT OF CANCER” (Ohio State Innovation Foundation, priority 2023, published 2026).

Where two headings read alike, the source gives them in different places.

Experiment [1] deals with dedifferentiated liposarcoma (DDLPS) cell line Lipo863. As to the kind of experiment: Cell cytotoxicity (MTS) assay. Conditions: Homo sapiens.
Experiment [2] deals with Empty Vector (EV) dedifferentiated liposarcoma cells (cell lines Lipo863 and Lipo815). The experiment can be described thus: Migration assay, Empty Vector (EV) control cells. It counts as cell-based, human. Conditions: 0.4-4 uM solutions; FIG. 17. Here is the method: (§1) FIG. 16A-16B. Evaluation of the effect of IWS1 inhibitors identified from in silico screening on the migration of cancer cells. […] The migration assay was performed using two cell groups: Empty Vector (EV, Negative control) and shIWS1 (IWS1 knockdown).
FIG. 17. Evaluation of the dose-dependent effect of IWS1 inhibitors identified from in silico screening on the migration of cancer cells. Cell migration in vitro represents to some extent the ability of cells to metastasize in vivo.
(§2) To evaluate these compounds, we used dedifferentiated cell lines Lipo863 and Lipo815 as an in-vitro model of dedifferentiated liposarcoma (DDLPS). […] FIG. 15A-15C. Using these candidates as potential pharmacological inhibitors of IWS1, we expected to reproduce/mimic phenotypical changes specific for lentiviral IWS1 knockdown. […] We performed a migration assay to assess the ability of cells to migrate after 24 hours of treatment compared to intact cells (EV) as well as IWS1 knockdown cells (shIWS1). Using drug concentrations that would not affect the viability of the cells, we sought to evaluate predominantly the migratory ability of cells. […] FIG. 17.

Experiment [3] concerns shIWS1 (IWS1 knockdown) dedifferentiated liposarcoma cells (cell lines Lipo863 and Lipo815). The experiment can be described thus: Migration assay, IWS1 knockdown (shIWS1) cells. It counts as cell-based, human. Conditions: 24 hours of treatment, vs non-treatment control. The procedure: as §1, §2
In experiment [4] the test system is IWS1/Spt6 complex. The experiment can be described thus: Co-immunoprecipitation of the IWS1/Spt6 complex from treated cells. Conditions: Co-IP after 48 hours of treatment; vs DMSO negative control. It counts as cell-based, human. The text has this:
The Co-IP method allowed us to analyze IWS1/Spt6 protein complex directly and assess the efficiency of the drug candidates to disrupt the complex.

The target in experiment [5] is T1, IWS1 (Homo sapiens, UniProt Q96ST2).
T1 construct: document uses human liposarcoma lines; nuclear/cytosolic fractionation
The experiment can be described thus: Nuclear/cytosolic fraction analysis of IWS1 distribution. It counts as cell-based. As to conditions: 5 uM; 48-hour treatment; DMSO negative control ratio 0.75. The source says: The binding of the small molecule to IWS1 may cause the redistribution of the latter in the cell (cytoplasmic vs nuclear locations) due to conformational changes of the protein or disruption of its functions. To characterize the effect of a drug candidate on the distribution of IWS1 in the cell, we performed fraction analysis by separating cytoplasmic and nuclear proteins.

Experiment [6] relates to invasive DDLPS cell line Lipo246. The experiment can be described thus: Invasion of DDLPS cells. It counts as cell-based. Conditions: 48 h, read-out: decrease in invasion ability. The source says:
FIG. 18. Evaluation of the effect of IWS1 inhibitors identified from in silico screening on the […] of cancer cells. Invasiveness is important parameter used to characterize the aggressive behavior of cancer cells.
Invasiveness is important parameter used to characterize the aggressive behavior of cancer cells.

The mark [7] stands for this setting: read-out: IC50 (cell cytotoxicity assay).
Where [8] appears, read: read-out: IC50 (the concentration at which the drug kills 50% of cancer cells).

Consider `CN1CCC(=C2c3ccccc3C=Cc3ccccc32)CC1` [Cyproheptadine], for which the IC50 in experiment [1] (setting [7]) and in experiment [1] (setting [8]) was 33 µM in each case.

Consider `Clc1ccc2c(c1)CCc1cccnc1C2=C1CCNCC1` [Desloratadine], for which, in experiment [2], the “decrease in migration ability (dose-dependent)” value is reported as 34-53%. Further, the “reduction in migration, shIWS1 cells” value in experiment [3] is on record as “no significant reduction”. Moreover, the “decrease in amount of IWS1/Spt6 complex pulled down” value in experiment [4] is “more than 50%”. Also, the “increase of ratio between nuclear and cytosolic fractions of IWS1” value in experiment [5] came to 3.3. The inhibition at 4 µM in experiment [6] was found to be 25%. The IC50 in experiment [1] (setting [7]) and in experiment [1] (setting [8]) was 14 µM in each case.
